These are yes or no findings as the source states them, for the method shown. In cells and extracts the contact can be indirect. Some binding calls cover weakened binding; strength is not graded here.
Target: β-catenin (mouse (endogenous in C3H10T1/2)) (UniProt Q02248)
Test: co-IP; lysates of C3H10T1/2 cells, control or after 35 min of oscillatory fluid flow; β-catenin precipitated with anti-β-catenin antibody and Protein G sepharose; beads washed four times with IP buffer (10 mM Tris-HCl pH 7.5, 1% Triton X-100, 0.5% NP-40, 150 mM NaCl, 2 mM CaCl2); western blot for N-cadherin, normalised to β-catenin

Chains of the proteins cited; added tags and fusions are not shown. Residues count along the entry.
UniProt Q02248: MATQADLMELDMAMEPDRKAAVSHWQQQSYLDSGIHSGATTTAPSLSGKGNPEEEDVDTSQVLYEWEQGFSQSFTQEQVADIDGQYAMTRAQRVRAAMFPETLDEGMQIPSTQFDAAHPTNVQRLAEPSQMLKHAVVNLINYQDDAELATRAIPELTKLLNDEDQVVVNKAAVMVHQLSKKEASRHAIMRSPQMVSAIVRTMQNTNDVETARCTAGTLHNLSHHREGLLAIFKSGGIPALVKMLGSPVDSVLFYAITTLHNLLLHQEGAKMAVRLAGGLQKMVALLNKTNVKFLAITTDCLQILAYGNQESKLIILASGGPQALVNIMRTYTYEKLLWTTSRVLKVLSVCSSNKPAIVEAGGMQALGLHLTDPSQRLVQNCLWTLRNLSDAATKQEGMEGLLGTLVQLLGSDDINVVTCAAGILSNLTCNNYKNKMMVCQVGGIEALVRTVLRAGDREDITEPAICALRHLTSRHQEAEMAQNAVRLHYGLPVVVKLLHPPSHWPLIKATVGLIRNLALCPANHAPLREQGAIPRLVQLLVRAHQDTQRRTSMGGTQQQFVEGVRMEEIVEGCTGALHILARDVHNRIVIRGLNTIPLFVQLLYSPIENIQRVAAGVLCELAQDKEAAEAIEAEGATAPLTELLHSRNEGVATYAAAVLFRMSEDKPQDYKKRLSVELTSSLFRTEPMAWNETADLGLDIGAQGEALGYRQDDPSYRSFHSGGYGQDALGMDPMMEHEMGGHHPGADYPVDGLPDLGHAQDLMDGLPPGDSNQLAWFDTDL
UniProt P15116, residues 160-906: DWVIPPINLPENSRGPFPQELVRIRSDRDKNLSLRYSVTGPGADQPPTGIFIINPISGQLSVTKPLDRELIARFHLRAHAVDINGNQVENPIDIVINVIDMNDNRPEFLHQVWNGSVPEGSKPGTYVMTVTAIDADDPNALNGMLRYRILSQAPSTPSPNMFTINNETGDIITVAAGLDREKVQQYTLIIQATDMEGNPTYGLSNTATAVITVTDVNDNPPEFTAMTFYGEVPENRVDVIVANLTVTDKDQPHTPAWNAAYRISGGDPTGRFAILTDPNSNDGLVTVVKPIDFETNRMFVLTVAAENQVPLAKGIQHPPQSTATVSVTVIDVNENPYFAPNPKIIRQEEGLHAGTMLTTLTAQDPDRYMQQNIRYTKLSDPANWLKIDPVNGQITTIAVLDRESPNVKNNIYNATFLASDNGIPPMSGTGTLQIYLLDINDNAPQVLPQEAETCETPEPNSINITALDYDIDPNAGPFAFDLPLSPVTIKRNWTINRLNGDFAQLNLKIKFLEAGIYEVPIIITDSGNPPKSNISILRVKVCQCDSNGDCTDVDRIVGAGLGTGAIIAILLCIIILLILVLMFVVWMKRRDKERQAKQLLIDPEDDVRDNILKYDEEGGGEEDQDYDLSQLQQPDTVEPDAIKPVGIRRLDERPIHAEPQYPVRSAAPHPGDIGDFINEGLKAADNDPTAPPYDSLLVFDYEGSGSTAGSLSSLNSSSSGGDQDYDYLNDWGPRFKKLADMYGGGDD

N-cadherin (from UniProt P15116 160-906)
binding: binds
